Source: PubChem BioAssay AID624246 (National Center for Advancing Translational Sciences (NCATS), 2012)
Several values for one entry are separate records, joined by “and”; a condition that tells them apart may be missing. Equal entries are not always repeated. Hit rate of the full screen: of about 370,000 compounds, about 100 (0.027%) were called active. The inconclusive results got no clear call from the source; some entries with a clear call stand among them for comparison. Calls follow the shape of the dose curve; as a rule, active = well fitted inhibition curve with a large enough effect in the polarisation, with a control signal flat; inconclusive = small, poorly fitted or top-dose-only effect, or effect the other way, or a change in a side signal; inactive = no such curve, though single readings can be large or run the other way; the % refers to the polarisation. Where the call is inconclusive, the potency comes from a doubtful curve fit. A note “side channel” means that the fit belongs to a control or component signal, not to the main read-out.

Amino acid sequences for entries named in this document (tags omitted). A change or cut given only in a name is not applied to a line headed by its entry.
UniProt P11308: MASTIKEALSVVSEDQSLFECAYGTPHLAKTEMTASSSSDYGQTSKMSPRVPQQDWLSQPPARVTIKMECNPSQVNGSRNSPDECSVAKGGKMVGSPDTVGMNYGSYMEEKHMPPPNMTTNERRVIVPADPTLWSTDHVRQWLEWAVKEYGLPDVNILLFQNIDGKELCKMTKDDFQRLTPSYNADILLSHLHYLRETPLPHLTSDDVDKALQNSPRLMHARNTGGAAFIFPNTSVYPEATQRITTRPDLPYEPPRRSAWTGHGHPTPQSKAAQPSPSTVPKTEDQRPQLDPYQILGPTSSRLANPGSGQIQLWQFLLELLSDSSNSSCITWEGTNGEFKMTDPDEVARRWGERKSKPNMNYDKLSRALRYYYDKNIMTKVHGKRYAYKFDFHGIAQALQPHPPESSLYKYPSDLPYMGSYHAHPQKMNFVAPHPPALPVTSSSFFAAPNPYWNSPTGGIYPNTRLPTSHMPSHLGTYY

Target: Transcriptional regulator ERG (Homo sapiens) (UniProt P11308)
Experiment: qHTS for Small Molecule Inhibitors of the ERG Ets/DNA interaction
Conditions: fluorescence polarization, His-ERG Ets domain / labelled DNA; series mostly up to 76.9 µM
Summary of the method: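 His-tagged ERG Ets domain (1 uM in the protein solution; 300mM KCl, 50mM Tris-HCl, 1mM EDTA, 1mM DTT, pH 7.5) received compound, then a probe mix of 5 nM fluorescein-DNA and 100nM Texas-615-DNA. Fluorescence polarization was read for both dyes.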
Potency is read from the fitted curve at half-maximal effect.

SMILES | Potency
O=C(O)c1cccc(CN2C(=O)SC(Nc3cccc4ccccc34)C2=O)c1 (configuration not stated) | inactive
Oc1c(Br)cc(Br)c2cccnc12 | inactive
COc1ccc(CNC(=O)CN(C(=O)c2csnn2)c2ccc(F)cc2)cc1 | inactive
CCCCC1=CC2=CC(=O)C(C)(OC(=O)CC)C(=O)C2=CN1CCOC (configuration not stated) | inconclusive: 44.7 µM [inhibitor, single point]
CCOc1cc(/C=N/N=C(N)N)ccc1OCc1ccc(Cl)cc1 | inactive
O=C1NC(=O)C(=Cc2ccc(Cl)cc2Cl)S1 | inactive
COc1ccc(NS(=O)(=O)c2cccc(NC(=O)COc3ccc(OC)cc3)c2)cc1 | inactive
COc1ccc(C2c3[nH]c4ccccc4c3C[C@H]3C(=O)N(c4ccccc4C(=O)N4CCC[C@@H]4C(=O)O)C(=O)N23)cc1 (some centres not stated) | inconclusive: 0.794 µM [inhibitor, full curve, poor fit]
Cc1nn(CC(=O)NCCCN2CCCC2)c(=O)c2nn(-c3ccccc3)c(C)c12 | inconclusive: 0.794 µM [inhibitor, full curve, poor fit]
CCN(CC)CCNC(C(=O)Nc1ccc([N+](=O)[O-])cc1Br)c1ccccc1 (configuration not stated) | inconclusive: 12.6 µM [inhibitor, partial curve, poor fit]
CC(=O)OCCNc1cc(SCc2ccco2)c2nonc2c1[N+](=O)[O-] | inconclusive: 31.6 µM [quencher, side channel, partial curve, poor fit]
Cc1ccc2nc(COc3cccc(NC(=O)c4cccc(Cl)c4)c3)cc(=O)n2c1 | inconclusive: 31.6 µM [inhibitor, partial curve, poor fit]
COc1cccc(-c2nn(-c3ccc(C)cc3)cc2C(=O)NCC2CCCO2)c1 (configuration not stated) | inactive
COC(=O)c1ccc(Cl)c(NS(=O)(=O)c2ccc3c(c2)OCCO3)c1 | inactive
CC(=O)C1CCN(Cc2ccccc2)CC1 | inconclusive: 22.4 µM [quencher, side channel, partial curve, poor fit]
COc1ccc([N+](=O)[O-])c(OC)c1C(=O)NC(=O)Nc1c(F)c(F)c(F)c(F)c1F | inconclusive: 11.2 µM [inhibitor, single point]
Cc1nc2c(Br)c(C)nn2c2c1CCC2 | inactive
COc1ccc(/C=N/Nc2snc(SC)c2C#N)cc1OC | inactive
O=C(O)/C=C\C(=O)Nc1ccc(Oc2ccccc2)cc1 | inactive
CCS(=O)(=O)N1CCC(NC(=O)c2ccco2)CC1 | inconclusive: 20 µM [fluorescent, side channel, partial curve, poor fit]
O=C1CCC(C(=O)N2CCCCO2)CN1CCc1ccc(Cl)cc1 (configuration not stated) | inconclusive: 0.794 µM [inhibitor, full curve, poor fit]
O=C(Nc1cccc(-c2nc3cc(Cl)ccc3o2)c1)c1ccc(F)cc1 | inactive
CC(C)(C)c1ccc(C(=O)N2CCC(NC(=O)c3ccccc3)CC2)cc1 | inactive
COCCCC/C(=N\OCCN)c1ccc(C(F)(F)F)cc1 | inconclusive: 50.1 µM [inhibitor, single point] and inconclusive: 11.2 µM [inhibitor, single point]

SMILES | Potency
O=C(NCCc1ccc(Cl)cc1)/C(=C/c1cccnc1)NC(=O)c1ccccc1 | inconclusive: 0.891 µM [inhibitor, partial curve, poor fit]
C#CC1(O)CCC2C3CCc4cc(O)cc(C)c4C3CCC21C (configuration not stated) | inconclusive: 11.2 µM [inhibitor, single point]
Cn1c(=O)c2sccc2n2c(CCCC(=O)NCc3ccco3)nnc12 | inconclusive: 35.5 µM [inhibitor, single point]
Cc1nsc2c1ccc1ccccc12 | inconclusive: 2 µM [quencher, side channel, full curve, poor fit]
COc1ccc(N2CCN(C(=N)/C(C(C)=O)=C(\C)O)CC2)cc1 | inactive
O=[N+]([O-])c1ccc(OCC(O)CN(CCO)CCO)cc1 (configuration not stated) | inactive
Cc1csc(Nc2nc(N)c(C(=O)Nc3ccccc3)o2)n1 | inactive
COC(=O)c1ccccc1NC(=O)NCCc1c(C)nn(C)c1C | inactive
Cc1cc(/C=N/NC(N)=S)c(O)c(/C=N/NC(N)=S)c1 | inconclusive: 44.7 µM [inhibitor, single point]
CCn1c(CSc2nnc(-c3ccncc3)n2CCOC)nc2cc(C(=O)O)ccc21 | active: 5.01 µM
CCOC(=O)C1CCN(C(=O)c2cccc(S(=O)(=O)N3CCCc4ccccc43)c2)CC1 | inconclusive: 31.6 µM [inhibitor, single point]
CSc1ncccc1C(=O)OCC(=O)NCCCc1ccccc1 | inactive
CCCn1c(SCC(=O)c2cc(C)n(-c3ccc4c(c3)OCO4)c2C)n[nH]c1=O | inconclusive: 0.891 µM [inhibitor, partial curve, poor fit]
CC(=O)Nc1cccc(C(=O)NC2CCCc3c2cnn3-c2ccc(C(C)(C)C)cc2)c1 (configuration not stated) | inconclusive: 7.08 µM [inhibitor, partial curve, poor fit]
NC(=O)N/N=C/c1cn(-c2ccccc2)nc1-c1ccccc1 | inactive
O=C1c2ccccc2C(=O)N1CCOc1ccccc1Br | inconclusive: 50.1 µM [inhibitor, single point]
O=c1c(Cl)c(Cl)cnn1Cc1ccc(F)cc1 | inactive
CCOc1cccc(CNc2ccc(O)cc2)c1OCc1ccc(Cl)cc1Cl | inconclusive: 31.6 µM [inhibitor, partial curve]
Cc1cc2cc(CNC(=O)C(C)Oc3ccccc3)ccc2n1C (configuration not stated) | inconclusive: 28.2 µM [inhibitor, partial curve]
CCOc1cc(C(=O)N/N=C/c2cn(-c3ccccc3)nc2-c2cc3ccccc3o2)cc(OCC)c1OCC | inactive
CCOC(=O)Cc1c(C)c2ccc(N(CC)CC)cc2oc1=O | inactive
COc1ccccc1N1CCN(C(=O)COc2cc(C)cc3oc(=O)cc(C)c23)CC1 | inactive
N#CCCN(C(=S)NC(=O)C1CCCCC1)c1ccccc1F | inconclusive: 0.794 µM [inhibitor, full curve, poor fit]

Given tab-delimited: three of the compounds above
SMILES	Potency
Cc1nsc2c1ccc1ccccc12	inconclusive: 2 µM [quencher, side channel, full curve, poor fit]
CSc1ncccc1C(=O)OCC(=O)NCCCc1ccccc1	inactive
CCOC(=O)Cc1c(C)c2ccc(N(CC)CC)cc2oc1=O	inactive
